Publication PMC11109111
Residue numbers refer to the chain shown, from its start. Results are given in words; binding and its absence hold for the method and conditions named. A result given as binding can be weak or reduced; the word gives no strength. Sequences can lack the tags named with a protein. For some of these results: Binding seen in cells or lysates may run through a third protein. Blank lines part the entries; values can stand above or below the molecule they belong to.

Columns and labels:
[1] = molecular target: T1, GRAIN WEIGHT 6a (GW6a), yeast two-hybrid fusion used for the screen (rice (Oryza sativa)) (UniProt Q67UR2); test: two-hybrid; yeast two-hybrid screen for proteins that interact with GW6a; no methods given
T1 sequence: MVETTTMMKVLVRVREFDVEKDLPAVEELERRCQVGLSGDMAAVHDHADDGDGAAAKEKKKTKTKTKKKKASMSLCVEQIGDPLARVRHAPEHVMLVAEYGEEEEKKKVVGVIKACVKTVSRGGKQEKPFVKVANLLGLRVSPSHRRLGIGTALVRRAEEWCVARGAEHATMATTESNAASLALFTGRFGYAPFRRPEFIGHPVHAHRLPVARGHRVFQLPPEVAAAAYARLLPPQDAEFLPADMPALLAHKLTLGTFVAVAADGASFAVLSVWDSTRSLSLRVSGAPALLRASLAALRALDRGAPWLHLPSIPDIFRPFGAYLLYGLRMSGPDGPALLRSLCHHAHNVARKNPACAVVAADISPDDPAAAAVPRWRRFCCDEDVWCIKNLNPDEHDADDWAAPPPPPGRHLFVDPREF

[2] = molecular target: T2, GST-GW6a (rice (Oryza sativa)) (UniProt Q67UR2); test: pull-down; GST-tag purification resin incubated with GST or the GST fusion at 4 C for 1 h, then with CLG1-Myc or His-GW6a at 4 C for 1 h; washed with PBS, 0.05% SDS, 1% Triton X-100; immunoblot with anti-GST, anti-Myc or anti-GW6a
T2 sequence: T1 sequence

[3] = molecular target: T3, GST-GW6a^S142/T186A (rice (Oryza sativa)) (UniProt Q67UR2); test: as above
T3 sequence: T1 sequence with S142A, T186A

[4] = molecular target: T4, GST-GW6a^S142/T186D (rice (Oryza sativa)) (UniProt Q67UR2); test: as above
T4 sequence: T1 sequence with S142D, T186D

[5] = molecular target: T5, GW6a-nLUC (rice (Oryza sativa)) (UniProt Q67UR2); test: split reporter; split firefly luciferase complementation in N. benthamiana leaves; GW6a-nLUC with CLG1-cLUC, GW2-cLUC or HDR3-cLUC, with or without a third protein as GFP fusion (GW2-GFP, HDR3-GFP, CLG1-GFP); LUC signal by CCD imaging
T5 sequence: T1 sequence

[6] = molecular target: T6, nYFP-GW6a (rice protoplasts, pSY736) (rice (Oryza sativa)) (UniProt Q67UR2); test: split reporter; BiFC, split YFP, in rice protoplasts incubated overnight; confocal microscopy
T6 sequence: T1 sequence

[7] = molecular target: CLG1-GFP (rice (Oryza sativa)); test: co-IP; N. benthamiana leaves co-expressing GW6a-Myc and the GFP fusion (or GFP), 72 h; total protein on anti-GFP affinity beads, 4 C, 3 h; immunoblot with anti-GFP and anti-Myc

binding [1]: binds
Molecule: CHANG LI GENG 1 (CLG1), hit of the yeast two-hybrid screen (from UniProt Q6AUD8)

binding [2]: binds
binding [3]: binds weakly
binding [4]: binds
Molecule: CLG1-Myc (E. coli-produced) (rice (Oryza sativa)) (enzyme)

binding [5]: binds
Molecule: CLG1-cLUC (rice (Oryza sativa)) (enzyme)

binding [6]: binds
Molecule: CLG1-cYFP (rice (Oryza sativa)) (enzyme)

binding [7]: binds
B1: GW6a-Myc (protein, UniProt Q67UR2 1-419)
chain: T1 sequence
